Primary screen of a compound library

Results are given as percent effect. The record does not define 0% and 100%; most values in the screen are far below 50% and negative numbers occur (in some assays of this library far below -100). Compounds were drawn at random from those tested, without regard to their results.

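Assay of Toxoplasma gondii numbers, read through their beta-galactosidase reporter with a colour substrate. Compounds at 50 µM. The record gives no direction; the compounds picked for IC50 retests had high values, so higher reads as fewer parasites. Size under these conditions: about 18,000 compounds, about 170 of them at 50% or above in at least one test.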

| structure | effect |
|---|---|
| `Cc1noc(C)c1S(=O)(=O)NCC(C)(O)c1ccsc1` (stereo not drawn) | -2.994% |
| `CC(C)(C)c1noc(CN2CCSCC2)n1` | -0.4391% |
| `O=C(CCc1ccco1)Nc1nnc[nH]1` | -9.887% |
| `CC1(O)CN(S(=O)(=O)CCCC#N)C1` | -3.386% |
| `CS(=O)(=O)N1CCCc2c(F)cccc21` | 5.104% |
| `COCCn1cnnc1CCNC(=O)c1cnccn1` | 0.4936% |
| `O=C(CN1CCCCCC1=O)OCC=CCl` | 2.014% |
| `C1CC(COCCc2noc(C3CNC3)n2)CCO1` | 31.48% |
| `CNC(=O)C1CCCCN1Cc1cncn1C1CC1` (stereo not drawn) | -21.59% |
| `Cc1cc(Br)cc2cc(C(=O)NC(C)(CO)CO)oc12` | 1.366% |
| `CN(CC1CCOC1)C(=O)c1cc(F)ccc1F` (stereo not drawn) | 12.99% |
| `O=C1CCC(C(=O)Nc2ccc(F)c(Br)c2)N1` (stereo not drawn) | -3.755% |
| `CC(C)C(N)C1(CO)CC=CC1` (stereo not drawn) | 36.71% |
| `COc1cncc(C(NC(=O)CSC)[C@H]2C[C@@H](O)C2)c1` (stereo partly drawn) | 3.269% |
| `Cc1ccccc1-n1nnnc1SC(C)C(=O)N(C)C` (stereo not drawn) | -2.614% |
| `CCN(CCO)Cc1cc(=O)n2cc(C)ccc2n1` | 4.99% |
| `NCCc1ccc(C(F)(F)F)cn1` | -0.7951% |
| `CCC1CN(Cc2cccnc2N)CCN1C(C)C` (stereo not drawn) | -10.85% |
| `CC(C)(C)OC(=O)N1CCCOC(CN)C1` (stereo not drawn) | -8.47% |
| `CC1(C#N)CCC(=O)NC1` (stereo not drawn) | -0.05841% |
| `NC(=O)NC(=O)COC(=O)c1ccccc1Br` | -9.707% |
| `COc1cc(F)c(C(C)=O)cc1OC` | -1.894% |
| `CCC(CO)NC(=O)Nc1ccc(N2CCCC2)nc1` (stereo not drawn) | -3.987% |
| `CCCC(N)CNS(=O)(=O)c1c(C)nn(C)c1C` (stereo not drawn) | -0.4394% |
| `O=C(COc1ccc(F)cc1)Nc1ccon1` | -3.156% |
| `CCOc1cccc(CCN)n1` | 7.236% |
| `N#CCC1(O)CN(Cc2ccc(C#N)o2)C1` | 6.396% |

Once more, the final 2:

- CCOc1cccc(CCN)n1 : 7.236%
- N#CCC1(O)CN(Cc2ccc(C#N)o2)C1 : 6.396%

Source: ChEMBL document CHEMBL3988442, “University of Dundee, Small-Polar-MMV Screening Library” (2021).